# From US20260027209A1 (LEGEND BIOTECH IRELAND, published 2026)
# Chains of the proteins cited; added tags and fusions are not shown. Residues count along the entry.
# UniProt P51654, 25-554 limits assumed: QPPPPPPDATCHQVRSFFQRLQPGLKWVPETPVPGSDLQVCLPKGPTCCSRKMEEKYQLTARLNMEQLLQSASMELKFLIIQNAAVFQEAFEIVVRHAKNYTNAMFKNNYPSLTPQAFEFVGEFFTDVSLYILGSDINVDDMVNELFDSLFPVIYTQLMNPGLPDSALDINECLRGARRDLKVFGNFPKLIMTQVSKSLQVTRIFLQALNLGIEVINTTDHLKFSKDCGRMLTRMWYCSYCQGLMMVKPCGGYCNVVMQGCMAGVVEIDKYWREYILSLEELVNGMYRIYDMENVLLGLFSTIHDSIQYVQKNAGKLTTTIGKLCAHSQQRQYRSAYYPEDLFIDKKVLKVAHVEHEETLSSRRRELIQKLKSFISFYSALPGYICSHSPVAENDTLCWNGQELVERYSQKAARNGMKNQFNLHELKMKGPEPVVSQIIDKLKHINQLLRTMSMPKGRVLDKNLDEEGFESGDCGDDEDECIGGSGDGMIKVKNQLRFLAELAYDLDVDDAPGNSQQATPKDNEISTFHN
# T1: human Claudin-6 (human, UniProt P56747 1-220)
# T1 sequence (looked up): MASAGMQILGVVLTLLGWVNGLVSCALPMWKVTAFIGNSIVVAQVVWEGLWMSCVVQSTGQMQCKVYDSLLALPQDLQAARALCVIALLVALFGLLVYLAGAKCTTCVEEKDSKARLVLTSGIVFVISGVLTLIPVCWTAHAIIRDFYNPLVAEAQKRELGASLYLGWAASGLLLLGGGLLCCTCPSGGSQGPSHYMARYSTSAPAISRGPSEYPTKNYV
# B1: LCAR-CNBCAR2 (other)
# chain: DIVMTQSPLSLPVTPGEPASISCRSSQTIVHSNGNTYLEWYLQKPGQSPQLLIYKVSNRFSGVPDRFSGSGSGTDFTLKISRVEAEDVGVYYCFQVSHVPYTFGGGTKLEIKGSTSGSGKPGSGEGSTKGQVQLVQSGAEVKKPGASVKVSCKASGYTFTDYEMHWVRQATGQGLEWMGGIDPETGNTAYSQKFKGRVTMTRNTSISTAYMELSSLRSEDTAVYYCARYYSFAYWGQGTLVTVSSTSTTTPAPRPPTPAPTIASQPLSLRPEACRPAAGGAVHTRGLDFACDIYIWAPLAGTCGVLLLSLVITLYCKRGRKKLLYIFKQPFMRPVQTTQEEDGCSCRFPEEEEGGCELRVKFSRSADAPAYQQGQNQLYNELNLGRREEYDVLDKRRGRDPEMGGKPRRKNPQEGLYNELQKDKMAEAYSEIGMKGERRRGKGHDGLYQGLSTATKDTYDALHMQALPPR
# Legend:
# [1] = target: human GPC3 (human, UniProt P51654 25-554); test: cell-based or functional assay
# [2] = target: T1, human Claudin-6; test: cell-based or functional assay
binder,measurement,setting,value
B1,"Specific Cytotoxicity % on ES-2.huGPC3.Luc cells, E/T=4:1",[1],89.4%
same,"Specific Cytotoxicity % on ES-2.huCLDN6.Luc cells, E/T=4:1",[2],-19.7%
